Reference: article PMC6478918
Results are given in words; binding and its absence hold for the method and conditions named. In cells and extracts the contact can be indirect. Some entries that bind do so weakly or less than the wild type.

The chains behind the UniProt entries cited, without tags or fusion partners. Residues count along the entry.
UniProt Q02248: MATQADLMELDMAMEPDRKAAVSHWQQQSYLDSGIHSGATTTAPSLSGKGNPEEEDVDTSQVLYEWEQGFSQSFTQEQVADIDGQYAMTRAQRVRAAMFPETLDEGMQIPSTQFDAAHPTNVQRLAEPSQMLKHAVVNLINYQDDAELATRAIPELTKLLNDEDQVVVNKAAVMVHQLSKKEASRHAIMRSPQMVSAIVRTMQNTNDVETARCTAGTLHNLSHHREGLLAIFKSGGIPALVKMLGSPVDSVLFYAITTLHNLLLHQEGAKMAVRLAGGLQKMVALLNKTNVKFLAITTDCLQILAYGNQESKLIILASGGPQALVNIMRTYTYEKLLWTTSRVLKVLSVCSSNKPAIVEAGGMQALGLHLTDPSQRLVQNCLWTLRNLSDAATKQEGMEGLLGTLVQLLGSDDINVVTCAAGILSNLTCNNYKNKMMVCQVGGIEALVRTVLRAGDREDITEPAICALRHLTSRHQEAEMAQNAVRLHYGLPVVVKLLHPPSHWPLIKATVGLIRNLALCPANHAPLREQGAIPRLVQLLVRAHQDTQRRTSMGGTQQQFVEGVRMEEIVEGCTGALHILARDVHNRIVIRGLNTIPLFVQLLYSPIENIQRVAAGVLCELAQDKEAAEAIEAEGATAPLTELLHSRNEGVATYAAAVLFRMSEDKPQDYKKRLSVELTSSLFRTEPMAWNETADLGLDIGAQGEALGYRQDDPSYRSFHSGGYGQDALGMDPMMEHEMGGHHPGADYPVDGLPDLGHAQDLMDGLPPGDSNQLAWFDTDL
UniProt O35625: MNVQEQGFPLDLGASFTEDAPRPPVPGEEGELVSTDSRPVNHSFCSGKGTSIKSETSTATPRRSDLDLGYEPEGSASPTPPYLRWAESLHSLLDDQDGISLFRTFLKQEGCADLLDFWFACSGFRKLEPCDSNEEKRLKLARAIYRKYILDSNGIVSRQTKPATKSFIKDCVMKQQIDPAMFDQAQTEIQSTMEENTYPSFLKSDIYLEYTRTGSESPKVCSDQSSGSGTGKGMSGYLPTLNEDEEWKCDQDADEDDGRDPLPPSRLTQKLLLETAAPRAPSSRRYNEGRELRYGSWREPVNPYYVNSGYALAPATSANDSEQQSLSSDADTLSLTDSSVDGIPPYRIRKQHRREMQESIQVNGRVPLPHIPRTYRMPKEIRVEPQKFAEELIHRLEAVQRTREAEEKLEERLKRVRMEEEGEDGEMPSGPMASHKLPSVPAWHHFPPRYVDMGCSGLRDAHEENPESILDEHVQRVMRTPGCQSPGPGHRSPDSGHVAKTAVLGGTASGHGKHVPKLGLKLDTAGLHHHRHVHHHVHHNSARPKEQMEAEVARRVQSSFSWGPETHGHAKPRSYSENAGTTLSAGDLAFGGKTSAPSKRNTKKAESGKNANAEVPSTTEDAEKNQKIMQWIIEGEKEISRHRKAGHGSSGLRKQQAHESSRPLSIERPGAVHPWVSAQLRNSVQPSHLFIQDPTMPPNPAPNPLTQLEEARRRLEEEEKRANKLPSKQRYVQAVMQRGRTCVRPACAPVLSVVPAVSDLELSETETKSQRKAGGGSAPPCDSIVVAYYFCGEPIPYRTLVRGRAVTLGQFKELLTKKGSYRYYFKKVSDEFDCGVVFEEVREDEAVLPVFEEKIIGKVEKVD
UniProt P15116, residues 160-906: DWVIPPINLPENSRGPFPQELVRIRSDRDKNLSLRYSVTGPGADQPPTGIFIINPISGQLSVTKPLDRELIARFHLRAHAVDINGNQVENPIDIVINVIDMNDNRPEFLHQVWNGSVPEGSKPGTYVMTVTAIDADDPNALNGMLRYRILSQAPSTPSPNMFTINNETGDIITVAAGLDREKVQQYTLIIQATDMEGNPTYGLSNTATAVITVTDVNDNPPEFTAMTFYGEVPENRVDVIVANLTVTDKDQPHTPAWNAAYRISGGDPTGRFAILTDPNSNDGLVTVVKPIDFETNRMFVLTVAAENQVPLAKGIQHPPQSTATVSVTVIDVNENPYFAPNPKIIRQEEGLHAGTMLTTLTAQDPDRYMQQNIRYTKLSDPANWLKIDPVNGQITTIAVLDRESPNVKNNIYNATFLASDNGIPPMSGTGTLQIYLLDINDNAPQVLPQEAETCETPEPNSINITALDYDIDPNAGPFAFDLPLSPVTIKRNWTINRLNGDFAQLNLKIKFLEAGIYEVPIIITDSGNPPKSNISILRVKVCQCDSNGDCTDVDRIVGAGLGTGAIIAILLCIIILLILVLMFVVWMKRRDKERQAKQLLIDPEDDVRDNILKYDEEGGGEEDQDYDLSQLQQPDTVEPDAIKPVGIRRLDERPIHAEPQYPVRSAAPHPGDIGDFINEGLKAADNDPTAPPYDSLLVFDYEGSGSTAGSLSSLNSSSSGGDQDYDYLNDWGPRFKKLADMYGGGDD

Key:
[1] = target: β-catenin (mouse (endogenous in TKO HCC cells)) (UniProt Q02248); assay: co-IP; IP of endogenous β-catenin (IgG as control) from TKO HCC cell lysate in Triton-X IP Lysis Buffer, antibody 1 h at 4 °C, then A/G agarose beads 1 h; immunoblot; also cells treated with Wnt3A media and cells with shEcad2, shNcad1 or both
[2] = target: epidermal growth factor receptor (EGFR) (mouse (endogenous in TKO HCC cells)) (UniProt Q01279); assay: co-IP; IP of endogenous EGFR (IgG as control) from TKO HCC cell lysate; immunoblot of unbound and pull-down fractions; also cells with shβcat3 (β-catenin KD)
[3] = target: Axin (mouse (endogenous in TKO HCC cells)) (UniProt O35625); assay: co-IP; IP of endogenous Axin (IgG as control) from TKO HCC cell lysate; immunoblot for Axin, GSK3α/β and phospho-β-catenin

With “N-cadherin (from UniProt P15116 160-906)” the binding [1] was “binds” and the binding [2] was “binds”.
“phospho-β-catenin (Ser33/37/Thr41) (from UniProt Q02248 1-781)” was tested, and the binding [3] was “binds”.
In the case of β-catenin (from UniProt Q02248 1-781), the binding [2] is reported as “no binding”.
